{
  "source": "patent US20080299666A1",
  "about": "(University of South Carolina, priority 2007, published 2008)",
  "test": "general procedure: Fmoc solid-phase peptide synthesis; Fmoc-Ala-Wang resin; HBTU/HOBT",
  "conditions": "whole synthesis, scale 0.2 mmol",
  "note": "Where no end group is shown, it is not given here.",
  "data": [
    {"substance": "Ac-AKAAAKA", "values": [
      {"measurement": "isolated mass", "value": 0.1103, "unit": "g"},
      {"measurement": "isolated yield", "value": 82, "unit": "%"}
    ]},
    {"substance": "Ac-AAAKAKA", "values": [
      {"measurement": "isolated mass", "value": 0.0994, "unit": "g"},
      {"measurement": "isolated yield", "value": 74, "unit": "%"}
    ]},
    {"substance": "Ac-AAKAAKA", "values": [
      {"measurement": "isolated mass", "value": 0.1178, "unit": "g"},
      {"measurement": "isolated yield", "value": 84, "unit": "%"}
    ]}
  ]
}
